# Library screen at single concentrations

Chains of the proteins cited; added tags and fusions are not shown. Residues count along the entry.
UniProt P9WFT3, whole entry: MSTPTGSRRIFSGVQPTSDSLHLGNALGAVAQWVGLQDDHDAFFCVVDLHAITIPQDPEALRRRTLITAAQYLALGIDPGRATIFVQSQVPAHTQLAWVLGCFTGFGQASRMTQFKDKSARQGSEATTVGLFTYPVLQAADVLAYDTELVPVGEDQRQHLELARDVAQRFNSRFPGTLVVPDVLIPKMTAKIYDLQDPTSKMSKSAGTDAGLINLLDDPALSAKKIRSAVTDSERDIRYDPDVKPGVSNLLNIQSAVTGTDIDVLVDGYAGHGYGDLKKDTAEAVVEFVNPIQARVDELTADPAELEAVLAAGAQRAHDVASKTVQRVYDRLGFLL
UniProt Q8IDJ8, 1-583: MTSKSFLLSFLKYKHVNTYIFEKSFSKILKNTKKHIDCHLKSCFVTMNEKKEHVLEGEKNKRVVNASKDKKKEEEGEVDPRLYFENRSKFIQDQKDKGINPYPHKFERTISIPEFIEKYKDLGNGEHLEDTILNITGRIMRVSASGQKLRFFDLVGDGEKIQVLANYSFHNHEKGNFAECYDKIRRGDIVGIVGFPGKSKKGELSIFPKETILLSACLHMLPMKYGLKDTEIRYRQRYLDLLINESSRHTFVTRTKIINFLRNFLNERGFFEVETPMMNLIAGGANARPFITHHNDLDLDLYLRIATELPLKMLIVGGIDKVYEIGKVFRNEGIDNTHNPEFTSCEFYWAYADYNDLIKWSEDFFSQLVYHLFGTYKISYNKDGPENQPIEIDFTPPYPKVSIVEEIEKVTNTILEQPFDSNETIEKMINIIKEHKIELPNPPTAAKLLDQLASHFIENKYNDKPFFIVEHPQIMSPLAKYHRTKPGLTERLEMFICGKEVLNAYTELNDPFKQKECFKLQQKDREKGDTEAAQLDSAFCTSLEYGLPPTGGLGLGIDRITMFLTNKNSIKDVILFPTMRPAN
UniProt P9WPC5, whole entry: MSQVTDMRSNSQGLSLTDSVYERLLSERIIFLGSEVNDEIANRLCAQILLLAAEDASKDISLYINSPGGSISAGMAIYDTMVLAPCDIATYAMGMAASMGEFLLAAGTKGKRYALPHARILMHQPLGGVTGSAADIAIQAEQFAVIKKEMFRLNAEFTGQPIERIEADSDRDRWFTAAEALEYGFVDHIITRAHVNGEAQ
UniProt P9WPC3, whole entry partner: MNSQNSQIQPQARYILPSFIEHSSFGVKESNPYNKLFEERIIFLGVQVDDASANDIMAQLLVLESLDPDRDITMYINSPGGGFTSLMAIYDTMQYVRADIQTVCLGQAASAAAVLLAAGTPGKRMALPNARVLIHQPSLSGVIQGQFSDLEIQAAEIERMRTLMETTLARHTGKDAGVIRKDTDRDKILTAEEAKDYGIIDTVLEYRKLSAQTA

Measurements from “University of Dundee, Small-Polar-MMV Screening Library” (2021), ChEMBL document CHEMBL3988442.

MtTrpRS: 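Tryptophan-tRNA ligase, Mycobacterium tuberculosis (UniProt P9WFT3). Enzyme assay of tryptophanyl-tRNA synthetase; the read-out is not stated. Tested at 10 µM. Direction is not recorded; retested compounds ran higher, which suggests that high means inhibition. Of about 65,000 compounds tested this way, about 64 (0.098%) reached 50% or more in at least one test.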
PfKRS1: 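Enzyme assay of the cytosolic lysyl-tRNA synthetase in 384-well plates, read by luminescence. Target: Lysine-tRNA ligase, Plasmodium falciparum 3D7 (UniProt Q8IDJ8). Concentration: 30 µM. Direction is inferred from only a few compounds that gave an IC50; most scored high, so higher reads as stronger inhibition. About 69,000 compounds were tested under these conditions; 0.071% (about 49) showed 50% or more at least once.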
ClpP1P2: 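ClpP1P2, Mycobacterium tuberculosis (UniProt P9WPC5 and UniProt P9WPC3). Protease assay of ClpP1P2, read by the AMC dye that it sets free. Tested at 50 µM. Direction is inferred from only a few compounds that gave an IC50; most scored high, so higher reads as stronger inhibition. Most other retested compounds had strongly negative values. Of about 69,000 compounds tested this way, about 10 (0.015%) reached 50% or more in at least one test.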

Each number is a percent effect as filed.
How 0% and 100% were set is not recorded. Most values in the screen are low, and negative values occur.
Compounds were drawn at random from those tested, without regard to their results.

Result for FC(F)(F)Cc1noc(CN2CCCC2c2noc(C3CC3)n2)n1 (stereo not given) was MtTrpRS: -2.895%; PfKRS1: 1.999%; ClpP1P2: 11.56%.
Result for COc1ccccc1-n1c(CC(C)C)nnc1SCC(=O)O was MtTrpRS: 4.686%; PfKRS1: 4.06%; ClpP1P2: -2.855%.
Result for CCC(=O)N1CCc2nc(N3CCOCC3)nc(N(C)C)c2CC1 was MtTrpRS: 7.875%; PfKRS1: 7.688%; ClpP1P2: 9.665%.
Result for Cc1cc2c(=O)n3c(nc2s1)CCN(C(=O)c1ccncc1)CC3 was MtTrpRS: -6.104%; PfKRS1: 1.056%; ClpP1P2: -4.908%.
Result for N#Cc1ccc(OC2CCN(C(=O)c3ccccc3Cl)CC2)nc1 was MtTrpRS: 3.127%; PfKRS1: 0.8065%; ClpP1P2: -6.886%.
Result for COc1cccc(CN(C)C(=O)c2csc(-c3nnc[nH]3)n2)c1 was MtTrpRS: 2.839%; PfKRS1: -0.657%; ClpP1P2: 2.139%.
Result for Cc1cccc(C(Nc2nccc(-c3ccc(C)nc3C)n2)C2CC2)n1 (stereo not given) was MtTrpRS: -3.539%; PfKRS1: 5.321%; ClpP1P2: -21.13%.
Result for CCOCCOC(C)C(=O)Nc1ccc2ccn(CCN(C)C)c2c1 (stereo not given) was MtTrpRS: 3.343%; PfKRS1: 5.522%; ClpP1P2: -9.009%.
Result for COCC(=O)N1C[C@H]2CNC[C@@]2(C(=O)NCc2snnc2C)C1 was MtTrpRS: -3.791%; PfKRS1: 5.638%; ClpP1P2: -4.148%.
Result for CC(NC(=O)N1CCN(CCc2ccccc2)CC1)c1nncn1C (stereo not given) was MtTrpRS: -2.956%; PfKRS1: 3.194%; ClpP1P2: 0.5614%.
Result for O=C(O)c1c(NC2CCC2)ncc2c1CCN(C1CCOC1)C2 (stereo not given) was MtTrpRS: 1.618%; PfKRS1: 8.665%; ClpP1P2: -0.0547%.
Result for CCN1CCN(C(=O)c2cc(C(=O)OC)nn2-c2ccccc2)CC1 was MtTrpRS: -3.616%; PfKRS1: 5.663%; ClpP1P2: 18.13%.
Result for COCCC(=O)N1CCC(C(=O)c2cc(C)cnc2N)CC1 was PfKRS1: 2.213%; ClpP1P2: -49.78%.
Result for Cc1cc(=O)c2ccccc2n1CC1CCNC1 (stereo not given) was MtTrpRS: -3.857%; PfKRS1: 4.571%; ClpP1P2: 2.384%.
Result for Cc1oc(-c2nc(C#N)c(NC3CC3)o2)cc1S(=O)(=O)N1CCCC1 was MtTrpRS: -0.4902%; PfKRS1: 4.97%; ClpP1P2: -5.47%.
Result for Cc1ccc(CN2CCC[C@]3(C(=O)O)CN(CC4CC4)C[C@@H]3C2)s1 was PfKRS1: 1.542%; ClpP1P2: -3.032%.
Result for CCN1CCOCC12CCN(C(=O)Cc1cccs1)CC2 was MtTrpRS: -2.013%; PfKRS1: 6.297%; ClpP1P2: 2.922%.
Result for Cc1ccc2nc(CNCCCOc3ccccc3)cc(O)c2c1 was MtTrpRS: 1.724%; PfKRS1: 0.215%; ClpP1P2: 14.19%.
Result for Cc1nc(CNC(=O)NCC(O)c2ccc(F)cc2F)cs1 (stereo not given) was MtTrpRS: 1.098%; PfKRS1: 7.357%; ClpP1P2: 3.258%.
Result for COc1ccc2oc(C(C)NC(=O)NC3CCN(C)CC3)c(C)c2c1 (stereo not given) was MtTrpRS: 2.549%; PfKRS1: 4.001%; ClpP1P2: -4.061%.
Result for O=C(c1cccc(F)c1)N1CCc2ncc(Cn3cccn3)n2CC1 was MtTrpRS: -9.309%; PfKRS1: 2.571%; ClpP1P2: -10.59%.
Result for O=S(=O)(C1CC1)N1CC[C@]2(C[C@@H](Oc3ccccn3)CO2)C1 was MtTrpRS: 1.213%; PfKRS1: -1.545%; ClpP1P2: -9.87%.
Result for CN(C)Cc1nnc2n1CCN(Cc1ccccn1)CC2 was MtTrpRS: 3.139%; PfKRS1: 3.464%; ClpP1P2: -1.828%.
Result for COCCNC(=O)Nc1ccc(CN2CCOC2=O)cc1 was MtTrpRS: -1.754%; PfKRS1: 6.865%; ClpP1P2: 4.215%.

Once more, the final 2:

* CN(C)Cc1nnc2n1CCN(Cc1ccccn1)CC2 | MtTrpRS: 3.139%; PfKRS1: 3.464%; ClpP1P2: -1.828%
* COCCNC(=O)Nc1ccc(CN2CCOC2=O)cc1 | MtTrpRS: -1.754%; PfKRS1: 6.865%; ClpP1P2: 4.215%